T/C and survivor count data for 28 compounds are collected here from PubChem BioAssay AID330 (DTP/NCI, 2004).

The list is a part of this screen's results and no random one: it gathers tests that were run many times, whatever their T/C, doses with no T/C, and many T/C values between a quarter and a half above the control. Further doses and runs are listed elsewhere. T/C is the treated group as % of the vehicle group. Some entries give survivors of the animals treated and no T/C: the source holds a T/C of zero for them, seemingly a mark for toxic or unscored doses. Some survivor counts are full or nearly so, which does not show that the dose was tolerated: survival well below the control is almost never listed, so the zero probably covers shortened survival too. Counts of survivors are from the toxicity check (mostly the fifth day) where no day follows; animals may have died later. Schedule codes are those of the source, taken here to give the interval after Q, in days (D) or hours (H), and the number of doses after X. For survival time, this PubChem deposit counts one and a half times the control or more as active, and values a quarter to a half above the control carry no call in these data; other NCI protocols may use other cut-offs. Some entries hold several experiments; their values stand side by side, smallest first. Some T/C values are followed by the survivors on the day toxicity was checked, most often the fifth; where none is given, no animal had died by that day.

This test has as its system P388 leukemia ip, CD2F1 mice, survival T/C. As to the kind of experiment: NCI In Vivo Anticancer Drug Screen. Data for tumor model P388 Leukemia (intraperitoneal) in CD2F1 (CDF1) mice. The conditions noted are these: T/C endpoint: median survival time, higher T/C = longer survival.
Setting [1] is: dose: 100.0 mg/kg/injection, schedule: Q01DX009 (ip), vehicle: saline with Tween-80.
The mark [2] stands for this setting: dose: 200.0 mg/kg/injection, schedule: Q01DX009 (ip), vehicle: saline with Tween-80.
[3] abbreviates: dose: 50.0 mg/kg/injection, schedule: Q01DX005 (ip), vehicle: saline with Tween-80.
Setting [4] is: dose: 50.0 mg/kg/injection, schedule: Q01DX009 (ip), vehicle: saline with Tween-80.
Setting [5] is: dose: 240.0 mg/kg/injection, schedule: Q01DX005 (ip), vehicle: saline with Tween-80.
Where [6] appears, read: dose: 200.0 mg/kg/injection, schedule: Q01DX005 (ip), vehicle: saline with Tween-80.
Setting [7] is: dose: 400.0 mg/kg/injection, schedule: Q04DX003 (ip), vehicle: saline.
The mark [8] stands for this setting: dose: 25.0 mg/kg/injection, schedule: Q01DX005 (ip), vehicle: saline with Tween-80.
[9] abbreviates: dose: 50.0 mg/kg/injection, schedule: Q01DX009 (ip), vehicle: saline.
The mark [10] stands for this setting: dose: 100.0 mg/kg/injection, schedule: Q01DX009 (ip), vehicle: saline.
Setting [11] is: dose: 200.0 mg/kg/injection, schedule: Q01DX009 (ip), vehicle: saline.
Setting [12] is: dose: 200.0 mg/kg/injection, schedule: Q01DX009 (ip), vehicle: Klucel (hydroxypropylcellulose) (HPC).
The mark [13] stands for this setting: dose: 240.0 mg/kg/injection, schedule: Q01DX005 (ip), vehicle: saline.

On to `COC1C(OC(=O)c2ccc(C)[nH]2)C(O)C(Oc2ccc3c(O)c(NC(=O)c4c[nH]c(C(=O)Nc5c(O)c6ccc(OC7OC(C)(C)C(OC)C(OC(=O)c8ccc(C)[nH]8)C7O)c(C)c6oc5=O)c4C)c(=O)oc3c2C)OC1(C)C` (stereo unspecified), for which, for the setting “dose: 25.0 mg/kg/injection, schedule: Q01DX009 (ip), vehicle: saline with Tween-80”, the T/C is 140 % of control. Also, the survivor count under setting [1] was 3 of 6; the survivor count under setting [2] is recorded as 0 of 6; the survivor count (dose: 400.0 mg/kg/injection, schedule: Q01DX009 (ip), vehicle: saline with Tween-80) was 0 of 6.

For `COC(=O)C12OCC34C(CC5C(C)=CC(=O)C(O)C5(C)C3C(O)C1O)OC(=O)C(OC(=O)CC(C)C)C24` (stereo unspecified), the T/C runs as follows: (dose: 0.5 mg/kg/injection, schedule: Q01DX009 (ip), vehicle: saline + alcohol) 135 % of control; (dose: 1.0 mg/kg/injection, schedule: Q01DX009 (ip), vehicle: saline + alcohol) 135 and 146 % of control; (dose: 2.0 mg/kg/injection, schedule: Q01DX009 (ip), vehicle: saline + alcohol) 148 % of control [5 of 6 alive]. Besides, the survivor count reads like this: (dose: 4.0 mg/kg/injection, schedule: Q01DX009 (ip), vehicle: saline + alcohol) 0 of 6; (dose: 4.5 mg/kg/injection, schedule: Q01DX009 (ip), vehicle: saline + alcohol) 0 of 6; (dose: 9.0 mg/kg/injection, schedule: Q01DX009 (ip), vehicle: saline + alcohol) 0 of 6; (dose: 18.0 mg/kg/injection, schedule: Q01DX009 (ip), vehicle: saline + alcohol) 0 of 6; (dose: 36.0 mg/kg/injection, schedule: Q01DX009 (ip), vehicle: saline + alcohol) 0 of 5.

For the compound `CCN(CC)CCNc1ccc(COC(=O)OC)c2oc3ccccc3c(=O)c12`, the survivor count under setting [3] is 3 of 6.

Regarding `Clc1ccc(Cl)c(N=NNc2cc(Cl)ccc2Cl)c1`, the T/C was 125 % of control under setting [4] and 133 % of control under setting [1]. Besides, under setting [2], the survivor count is on record as 0 of 6.

In the case of `CC1=C(C#N)C(=O)NC1(C)O` (stereo unspecified), the survivor count (dose: 100.0 mg/kg/injection, schedule: Q01DX005 (ip), vehicle: Klucel (hydroxypropylcellulose) (HPC)) is recorded as 5 of 5.

On to `Nc1nc(N)c(N)c(N)n1`, for which the survivor count under setting [4] is 6 of 6, the survivor count under setting [1] is 0 of 6 and the survivor count under setting [2] was 0 of 6.

As to `N#Cc1ncc(C=P(c2ccccc2)(c2ccccc2)c2ccccc2)n(O)c1=N`, the survivor count under setting [2] was 6 of 6.

Turning to `N#CC1[C@@H](C(=O)c2ccccc2)N2C=Cc3ccccc3[C@@H]2[C@H]1C#N` (stereo partly specified), the survivor count (dose: 120.0 mg/kg/injection, schedule: Q01DX005 (ip), vehicle: saline with Tween-80) was 6 of 6 and the survivor count under setting [5] is given as 6 of 6.

`Cn1c2ccccc2c(=Nc2ccc(S(=O)(=O)N=C(N)N)cc2)c2ccccc21`: the survivor count under setting [6] is recorded as 3 of 6.

Regarding `Nc1nc([Se]c2nc(N)nc3c2ncn3C2OC(CO)C(O)C2O)c2ncn(C3OC(CO)C(O)C3O)c2n1` (stereo unspecified), the T/C (dose: 12.5 mg/kg/injection, schedule: Q01DX005 (ip), vehicle: distilled water + Tween-80) is 132 % of control; the T/C (dose: 25.0 mg/kg/injection, schedule: Q01DX005 (ip), vehicle: distilled water + Tween-80) was 138 % of control [5 of 6 alive]; the T/C (dose: 50.0 mg/kg/injection, schedule: Q01DX005 (ip), vehicle: distilled water + Tween-80) is 141 % of control; the T/C (dose: 100.0 mg/kg/injection, schedule: Q01DX005 (ip), vehicle: distilled water + Tween-80) was 135 % of control. Moreover, the survivor count (dose: 400.0 mg/kg/injection, schedule: Q01DX005 (ip), vehicle: distilled water + Tween-80) is given as 0 of 6.

As to `O=C(Nc1ccc(C2=NCCN2)cc1)Nc1cccc(NC(=O)Nc2cccc(C3=NCCN3)c2)c1`, the T/C by setting is: (dose: 3.0 mg/kg/injection, schedule: Q04DX003 (ip), vehicle: saline with Tween-80) 127 % of control; (dose: 3.13 mg/kg/injection, schedule: Q04DX003 (ip), vehicle: saline with Tween-80) 131 % of control; (dose: 6.25 mg/kg/injection, schedule: Q04DX003 (ip), vehicle: saline with Tween-80) 131 % of control. Also, the survivor count is listed as 0 of 6 (dose: 200.0 mg/kg/injection, schedule: Q04DX003 (ip), vehicle: saline) and 0 of 6 under setting [7].

Take `CC1CCN(C(=S)NNC(C)c2cc3ccccc3cn2)CC1` (stereo unspecified): the T/C is, setting by setting: (dose: 12.5 mg/kg/injection, schedule: Q01DX005 (ip), vehicle: saline with Tween-80) 137 and 139 % of control; under setting [8], 145 % of control. In addition, the survivor count runs as follows: under setting [8], 6 of 6; under setting [3], 0 of 6; (dose: 100.0 mg/kg/injection, schedule: Q01DX005 (ip), vehicle: saline with Tween-80) 0 of 6; under setting [6], 0 of 6.

In the case of `CN=C(N)N/N=C/c1ccc(-c2ccccc2)cc1`, the survivor count (dose: 100.0 mg/kg/injection, schedule: Q04DX002 (ip), vehicle: saline) is listed as 1 of 6.

For the compound `CCOC(=O)c1cc[nH]c1CC(=O)NC`, the survivor count (dose: 400.0 mg/kg/injection, schedule: Q01DX001 (ip), vehicle: saline with Tween-80) was 4 of 5.

On to `CN(C)CCCN1c2ccccc2C2CC2c2ccccc21` (stereo unspecified), for which, under setting [2], the survivor count is 2 of 6.

For `O=S(=O)(O)C1=CC(=N\Cl)/C=CC/1=N/Cl`, the T/C reads like this: (dose: 100.0 mg/kg/injection, schedule: Q01DX005 (ip), vehicle: saline + Tween-80 + alcohol) 127 % of control; (dose: 200.0 mg/kg/injection, schedule: Q01DX005 (ip), vehicle: saline + Tween-80 + alcohol) 144 % of control [5 of 6 alive]. The survivor count (dose: 400.0 mg/kg/injection, schedule: Q01DX005 (ip), vehicle: saline + Tween-80 + alcohol) was 0 of 6.

Regarding `O=C(O)CCc1nc(-c2ccccc2-n2cccc2)no1`, the survivor count under setting [2] is listed as 0 of 6.

Take `CCCCCCCCCCCCOC(=O)c1ccc(Br)cc1`: for the setting “dose: 50.0 mg/kg/injection, schedule: Q01DX009 (ip), vehicle: Klucel (hydroxypropylcellulose) (HPC)”, the survivor count is reported as 6 of 6.

On to `CCCCCCCCCSc1nc2ccc(N=Cc3ccccc3O)cc2s1`, for which, under “dose: 100.0 mg/kg/injection, schedule: Q01DX009 (ip), vehicle: Klucel (hydroxypropylcellulose) (HPC)”, the survivor count is 6 of 6.

As to `CN1CCN(CC2CCOc3cc(Cl)ccc3C2=O)CC1` (stereo unspecified), the survivor count under setting [7] is listed as 2 of 6.

Take `C[S+](C)c1ccc(Cl)cc1`: the survivor count runs as follows: under setting [9], 4 of 6; under setting [10], 0 of 6; under setting [11], 0 of 6.

As for `Nc1[nH]c(=S)[nH]c(=O)c1N=O`, the T/C (dose: 12.5 mg/kg/injection, schedule: Q01DX009 (ip), vehicle: saline) is 126 % of control. Besides, the survivor count by setting is: under setting [9], 5 of 6; under setting [10], 2 of 6; under setting [11], 0 of 6.

As for `CC1(C)CC(OS(C)(=O)=O)CC(C)(C)N1O`, under setting [12], the survivor count is on record as 2 of 6.

On to `O=C(Nc1cccc([N+](=O)[O-])c1)OCc1ccc2c(c1)OCO2`, for which, under setting [5], the survivor count was 6 of 6.

On to `O=C(CCl)N1CCN(C/C=C/c2ccccc2)CC1`, for which, under setting [13], the survivor count is listed as 3 of 6.

In the case of `Cc1cc[n+](Cc2cc3ccccc3nc2Cl)cc1C`, the survivor count is, setting by setting: (dose: 30.0 mg/kg/injection, schedule: Q01DX005 (ip), vehicle: saline) 3 of 6; (dose: 60.0 mg/kg/injection, schedule: Q01DX005 (ip), vehicle: saline) 0 of 6; (dose: 120.0 mg/kg/injection, schedule: Q01DX005 (ip), vehicle: saline) 0 of 6; under setting [13], 0 of 6.

As to `O=C1OCC/C1=C1\CCCO1`, under setting [4], the T/C was 125 % of control.

Regarding `O=C1C=C(C2=C(O)c3ccccc3C2=O)c2ccccc21` (tested in a mixture with another compound), the survivor count under setting [12] is 0 of 6.
